No constants are given. Whether binding was seen depends on the method and setting. For some of these results: In cells and extracts the contact can be indirect. Some binding calls cover weakened binding; strength is not graded here.
How the values were obtained:
[1] = molecular target: recombinant human laminin-111 (human) (UniProt P25391+P07942+P11047); test: ELISA; solid-phase binding assay: 96-well plates coated with laminins at 5 nM overnight at 4°C, blocked with 3% BSA; 30 nM integrins for 3 h at room temperature with 1 mM Mn2+; bound integrins detected by biotinylated anti-Velcro pAb and HRP-streptavidin (absorbance at 490 nm); both purified
[2] = molecular target: FLAG-tagged human laminin γ1 chain (human) (UniProt P11047); test: non-reducing SDS-PAGE with immunoblot; conditioned media of human 293 cells transiently expressing the laminin chains, recovered 3 d after transfection; 4% SDS-PAGE under nonreducing conditions, blot with anti-laminin-γ1 antibody
[3] = molecular target: FLAG-tagged human laminin γ1 chain (human) (UniProt P11047); test: co-IP; conditioned media of FreeStyle 293 cells expressing the three chains passed over ANTI-FLAG M2 Affinity Gel (FLAG on γ1), eluted with FLAG peptide; reducing 4% SDS-PAGE and Western blot with mAbs against α1, α5, β1 and γ1

The chains behind the UniProt entries cited, without tags or fusion partners. Where a name states a change or a piece, a line headed by the entry shows the natural chain unless it says otherwise. Residues count along the entry.
UniProt P07942: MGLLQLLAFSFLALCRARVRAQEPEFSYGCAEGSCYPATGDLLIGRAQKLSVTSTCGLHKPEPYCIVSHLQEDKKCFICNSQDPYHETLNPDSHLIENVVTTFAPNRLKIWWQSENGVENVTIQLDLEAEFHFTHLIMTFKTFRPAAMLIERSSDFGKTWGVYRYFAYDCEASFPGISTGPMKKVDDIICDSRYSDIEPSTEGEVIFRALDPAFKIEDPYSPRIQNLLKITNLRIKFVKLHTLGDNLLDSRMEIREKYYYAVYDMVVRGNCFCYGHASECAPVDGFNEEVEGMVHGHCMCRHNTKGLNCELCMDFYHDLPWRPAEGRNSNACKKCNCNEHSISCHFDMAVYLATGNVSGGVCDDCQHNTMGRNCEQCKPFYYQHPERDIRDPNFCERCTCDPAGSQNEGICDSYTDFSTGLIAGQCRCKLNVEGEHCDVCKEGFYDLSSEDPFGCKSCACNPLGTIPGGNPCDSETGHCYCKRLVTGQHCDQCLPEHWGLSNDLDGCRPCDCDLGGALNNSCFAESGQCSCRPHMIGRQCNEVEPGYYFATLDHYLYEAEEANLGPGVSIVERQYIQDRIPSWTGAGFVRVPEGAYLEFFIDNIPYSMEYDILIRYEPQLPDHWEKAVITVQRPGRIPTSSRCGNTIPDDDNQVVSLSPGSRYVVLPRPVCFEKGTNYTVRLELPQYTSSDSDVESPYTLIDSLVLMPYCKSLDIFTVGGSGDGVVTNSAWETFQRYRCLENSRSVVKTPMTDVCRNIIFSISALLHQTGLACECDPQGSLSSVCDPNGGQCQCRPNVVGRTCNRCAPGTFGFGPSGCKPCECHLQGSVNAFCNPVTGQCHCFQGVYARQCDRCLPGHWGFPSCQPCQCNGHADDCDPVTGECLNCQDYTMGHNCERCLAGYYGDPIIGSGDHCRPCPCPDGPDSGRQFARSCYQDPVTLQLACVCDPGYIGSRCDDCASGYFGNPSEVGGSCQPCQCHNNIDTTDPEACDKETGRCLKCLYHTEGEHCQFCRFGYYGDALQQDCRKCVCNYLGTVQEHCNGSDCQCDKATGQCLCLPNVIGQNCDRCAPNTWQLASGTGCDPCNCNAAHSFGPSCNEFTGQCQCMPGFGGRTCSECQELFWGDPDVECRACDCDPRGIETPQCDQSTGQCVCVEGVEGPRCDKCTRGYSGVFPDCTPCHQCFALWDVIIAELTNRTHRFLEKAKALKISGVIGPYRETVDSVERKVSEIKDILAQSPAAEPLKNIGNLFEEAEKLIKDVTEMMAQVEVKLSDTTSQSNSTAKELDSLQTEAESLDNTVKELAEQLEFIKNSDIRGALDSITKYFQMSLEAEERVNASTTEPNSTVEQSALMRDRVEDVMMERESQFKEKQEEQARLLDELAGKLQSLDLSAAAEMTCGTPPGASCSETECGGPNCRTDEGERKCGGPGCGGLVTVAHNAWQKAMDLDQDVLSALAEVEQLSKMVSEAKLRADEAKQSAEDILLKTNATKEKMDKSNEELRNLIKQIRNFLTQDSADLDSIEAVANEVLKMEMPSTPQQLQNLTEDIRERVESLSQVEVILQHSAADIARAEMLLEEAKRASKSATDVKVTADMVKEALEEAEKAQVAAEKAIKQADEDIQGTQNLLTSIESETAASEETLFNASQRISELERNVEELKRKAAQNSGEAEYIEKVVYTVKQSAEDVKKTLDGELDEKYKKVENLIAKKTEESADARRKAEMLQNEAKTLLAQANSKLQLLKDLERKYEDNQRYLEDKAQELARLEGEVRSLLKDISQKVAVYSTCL
UniProt P11047, residues 34-1609: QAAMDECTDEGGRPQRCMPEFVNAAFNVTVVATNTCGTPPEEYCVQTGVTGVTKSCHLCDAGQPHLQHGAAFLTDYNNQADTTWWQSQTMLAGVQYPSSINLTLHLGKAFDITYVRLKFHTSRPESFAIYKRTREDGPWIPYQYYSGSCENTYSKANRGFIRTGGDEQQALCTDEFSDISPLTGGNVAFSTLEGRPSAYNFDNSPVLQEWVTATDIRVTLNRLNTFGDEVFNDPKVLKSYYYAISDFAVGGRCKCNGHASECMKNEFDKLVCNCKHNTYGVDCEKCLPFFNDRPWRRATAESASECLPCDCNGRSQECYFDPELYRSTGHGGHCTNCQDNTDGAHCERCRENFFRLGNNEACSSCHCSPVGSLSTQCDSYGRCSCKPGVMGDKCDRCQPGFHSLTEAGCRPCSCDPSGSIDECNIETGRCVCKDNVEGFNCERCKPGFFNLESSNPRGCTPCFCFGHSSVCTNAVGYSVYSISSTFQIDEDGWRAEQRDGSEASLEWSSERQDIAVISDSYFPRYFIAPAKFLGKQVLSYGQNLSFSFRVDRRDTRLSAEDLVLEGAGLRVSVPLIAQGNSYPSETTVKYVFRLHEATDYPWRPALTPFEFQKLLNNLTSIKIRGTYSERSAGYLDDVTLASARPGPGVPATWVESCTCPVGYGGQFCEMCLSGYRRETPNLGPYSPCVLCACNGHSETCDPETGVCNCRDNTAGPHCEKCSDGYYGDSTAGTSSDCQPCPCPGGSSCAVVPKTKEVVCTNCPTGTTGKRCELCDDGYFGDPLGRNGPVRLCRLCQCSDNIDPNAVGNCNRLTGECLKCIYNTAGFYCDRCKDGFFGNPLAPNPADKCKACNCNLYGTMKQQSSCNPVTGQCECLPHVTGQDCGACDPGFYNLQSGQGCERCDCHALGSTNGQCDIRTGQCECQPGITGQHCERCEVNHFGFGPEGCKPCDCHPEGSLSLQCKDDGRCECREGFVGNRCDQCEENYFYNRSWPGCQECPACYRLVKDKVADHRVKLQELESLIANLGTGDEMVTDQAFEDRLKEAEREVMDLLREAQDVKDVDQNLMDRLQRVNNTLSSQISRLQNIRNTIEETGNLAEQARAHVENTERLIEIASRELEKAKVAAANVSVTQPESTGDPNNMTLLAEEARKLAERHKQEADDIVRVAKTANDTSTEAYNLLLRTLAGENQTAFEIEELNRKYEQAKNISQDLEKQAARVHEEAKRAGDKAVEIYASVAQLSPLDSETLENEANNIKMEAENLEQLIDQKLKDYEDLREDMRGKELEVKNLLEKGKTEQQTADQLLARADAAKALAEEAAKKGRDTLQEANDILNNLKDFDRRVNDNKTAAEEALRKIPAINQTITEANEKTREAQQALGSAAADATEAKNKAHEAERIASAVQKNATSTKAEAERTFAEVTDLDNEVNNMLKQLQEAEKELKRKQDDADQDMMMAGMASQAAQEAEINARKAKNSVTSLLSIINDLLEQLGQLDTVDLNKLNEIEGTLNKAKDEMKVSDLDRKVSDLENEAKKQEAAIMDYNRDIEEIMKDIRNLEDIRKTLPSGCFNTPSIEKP
UniProt P06756: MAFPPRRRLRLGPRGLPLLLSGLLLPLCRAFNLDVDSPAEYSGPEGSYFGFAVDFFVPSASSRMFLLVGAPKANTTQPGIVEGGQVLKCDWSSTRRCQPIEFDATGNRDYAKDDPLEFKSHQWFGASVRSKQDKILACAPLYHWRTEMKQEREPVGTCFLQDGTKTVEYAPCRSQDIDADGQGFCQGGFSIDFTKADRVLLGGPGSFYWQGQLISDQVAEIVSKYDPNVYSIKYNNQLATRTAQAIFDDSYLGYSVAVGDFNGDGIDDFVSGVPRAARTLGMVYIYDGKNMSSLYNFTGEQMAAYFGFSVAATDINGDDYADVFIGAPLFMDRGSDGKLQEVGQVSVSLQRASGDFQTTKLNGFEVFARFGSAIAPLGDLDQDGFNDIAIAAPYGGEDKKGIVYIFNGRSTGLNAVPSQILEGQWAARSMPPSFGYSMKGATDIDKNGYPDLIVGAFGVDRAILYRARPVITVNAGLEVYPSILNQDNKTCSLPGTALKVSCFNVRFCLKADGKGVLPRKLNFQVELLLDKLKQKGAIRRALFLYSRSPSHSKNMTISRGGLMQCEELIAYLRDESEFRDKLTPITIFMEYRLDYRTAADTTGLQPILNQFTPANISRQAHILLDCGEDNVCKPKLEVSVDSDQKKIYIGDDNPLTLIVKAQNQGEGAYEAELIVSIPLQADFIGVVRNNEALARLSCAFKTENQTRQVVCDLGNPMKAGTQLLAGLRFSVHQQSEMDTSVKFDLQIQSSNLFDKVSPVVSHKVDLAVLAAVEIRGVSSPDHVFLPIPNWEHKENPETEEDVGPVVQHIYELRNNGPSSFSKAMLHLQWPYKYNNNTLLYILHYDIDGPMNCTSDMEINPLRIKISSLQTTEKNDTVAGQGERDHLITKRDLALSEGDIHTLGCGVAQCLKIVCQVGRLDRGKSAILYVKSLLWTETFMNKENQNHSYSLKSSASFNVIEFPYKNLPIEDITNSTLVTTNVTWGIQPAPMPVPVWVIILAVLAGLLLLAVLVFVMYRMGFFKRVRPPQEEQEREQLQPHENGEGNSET

binding [1]	binding [2]	binding [3]	Substance
binds weakly			recombinant integrin αvβ5 (from UniProt P06756 31-992; P18084 24-719) (receptor)
binds weakly			recombinant integrin αvβ3 (from UniProt P06756 31-992; P05106 27-718) (receptor)
	binds	binds	human laminin α1 chain (from UniProt P25391 18-3075)
